# Assay results reported in patent US11026972B2, “Methods for generating macrophages with enhanced cancer phagocytosis” (Georgia State University Research Foundation, Inc., priority 2016, dated 2021).
# For part of these data: At least one structure is not confirmed: it was looked up by name or label, or the drawing left a doubt. Some entries share one result that the patent states for a list of compounds.
# Key:
# PEMs = test: Cell signaling inhibitors on LPS/cytokine- or PMA-induced PEM phagocytic activation toward RBCs; type: cell-based, mouse; details: 20 μM; all stimuli
# Method: FIGS. 5A-5H include data related to our experiments on the role of Syk in phagocytic activation. […] PEMs were treated with LPS and cytokines in the presence of various inhibitors. After washing, inhibitor-free macrophages were tested for phagocytosis toward RBCs. […] PEMs treated with LPS and activating cytokines, or together with IL-10, were tested for total Syk and phosphorylated Syk (Syk^pY, specific at Y519/520). FIG. 5D describes PMA-induced macrophages phagocytosis toward RBCs. WT and SIRPα^−/− PEMs were treated with PMA (37° C., 30 min) before testing phagocytosis toward RBCs. FIG. 5E is a schematic depiction of PKC-Syk-mediated macrophage phagocytic activation toward self. […]
# Ex vivo macrophage phagocytosis: Mouse spleens were harvested and minced in cold HBSS followed by passing through nylon meshes. […] The adherent cells, ˜70% being macrophages as determined by anti-F4/80 staining, were tested for phagocytosis. […] Macrophage phagocytosis of target cells was then analyzed by fluorescence microscopy and/or by FACS. […] Macrophage phagocytosis was then determined by FACS after labeling macrophages with anti-F4/80. […] Apoptosis was analyzed at 2, 4, 6, 8 and 18 h post UV irradiation by labeling of the cells with anti-phosphatidylserine (PS) antibody (data not shown) or FITC-conjugated annexin V (data not shown). […]
# [1] = tested on: CFSE-labeled CD47^+ or CD47^− RBCs in recipient mice; test: RBC adoptive transfer and in vivo clearance of CFSE-labeled RBCs; design: species or system mouse; details: DSS/IL-17-treated SIRPα^−/− mice; in 24 h; based on the CFSE-RBC clearance rate
# From the text: FIGS. 2A-2E includes data related to macrophage phagocytosis in vivo assessed by adoptive transfer experiments. FIGS. 2A-C are illustrative graphs showing clearance of adoptively transferred CD47-positive (Cd47^+) or CD47-negative (Cd47^−) RBC in recipient mice. […] Error bars are ±SEM. **P<0.01, ***P<0.001 vs. WT mice clearance of Cd47^+ RBCs. […] Mice treated with DSS (1% for SIRPα^−/− mice, 2% for WT and Cd47^−/− mice) for 8 d (d8) were transfused with CFSE-RBCs followed by determination of RBC clearance after 24 h. FACS data of Cd47^+ RBCs and Cd47^− RBCs in different mice at 30 min and 24 h after transfer were selectively shown. Total RBC phagocytosis was calculated based on the rates of CFSE-RBC clearance and the fact that SIRPα^−/− mice eliminate both Cd47^− RBC and Cd47^+ RBC, whereas WT mice and Cd47^−/− mice eliminate only Cd47^− RBCs. […]
# Adoptive transfer and in vivo clearance: CD47-expressing (CD47^+) RBC freshly collected from WT or SIRPα^−/− mice, and CD47-null (CD47^−) RBC collected from CD47^−/− mice were labeled with carboxyfluorescein succinimidyl ester (CFSE). […] Blood samples (5 μl) were then collected 30 min after the blood transfusion and the CFSE-labeled RBC in the circulation was assessed by FACS analyses. […] Clearance of CFSE-labeled cells in the circulation and the spleen were analyzed by FACS analyses of blood samples and splenocytes. […]
Molecule,PEM phagocytic activation (PEMs),estimated total RBCs phagocytosed [1]
O=c1cc(N2CCOCC2)oc2c(-c3ccccc3)cccc12 [LY294002],partially inhibited PEM phagocytic activation,
dextran sodium sulfate [DSS],,more than 5×10^9
"IL-17: recombinant murine cytokine interleukin IL-17 (also known as IL-17A), PeproTech (protein, UniProt Q62386 26-158, looked up) Interleukin-17A: AAIIPQSSACPNTEAKDFLQNVKVNLKVFNSLGAKVSSRRPSDYLNRSTSPWTLHRNEDPDRYPSVIWEAQCRHQRCVNAEGKLDHHMNSVLIQQEILVLKREPESCPFTFRVEKMLVGVGCTCVASIVRQAA",,more than 5×10^9
